One assay addresses GFP-RIPK2 (UniProt O43353). Briefly: co-IP; HEK293T cells transiently transfected with tagged proteins; NP-40 lysis buffer, antibody 2 h at 4°C, protein G Dynabeads, washed with ice-cold PBS; Western blot; for p62 with NOD1, NOD2 or RIPK2 also with and without co-expressed IRGM.
Assay [1] concerns the target T1, Flag-IRGM, stably expressed in HT-29 cells (UniProt A1A4Y4).
T1 sequence: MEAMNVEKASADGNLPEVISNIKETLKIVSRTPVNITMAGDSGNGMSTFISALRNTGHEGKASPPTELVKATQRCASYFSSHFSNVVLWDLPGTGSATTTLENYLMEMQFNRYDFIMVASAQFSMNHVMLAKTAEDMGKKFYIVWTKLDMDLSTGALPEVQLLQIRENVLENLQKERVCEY

Protein sequences, listed by entry. Tags and fused reporters are not part of them. Lines headed by an entry give the natural chain unless they say otherwise; changes in a name come on top.
UniProt Q96CV9: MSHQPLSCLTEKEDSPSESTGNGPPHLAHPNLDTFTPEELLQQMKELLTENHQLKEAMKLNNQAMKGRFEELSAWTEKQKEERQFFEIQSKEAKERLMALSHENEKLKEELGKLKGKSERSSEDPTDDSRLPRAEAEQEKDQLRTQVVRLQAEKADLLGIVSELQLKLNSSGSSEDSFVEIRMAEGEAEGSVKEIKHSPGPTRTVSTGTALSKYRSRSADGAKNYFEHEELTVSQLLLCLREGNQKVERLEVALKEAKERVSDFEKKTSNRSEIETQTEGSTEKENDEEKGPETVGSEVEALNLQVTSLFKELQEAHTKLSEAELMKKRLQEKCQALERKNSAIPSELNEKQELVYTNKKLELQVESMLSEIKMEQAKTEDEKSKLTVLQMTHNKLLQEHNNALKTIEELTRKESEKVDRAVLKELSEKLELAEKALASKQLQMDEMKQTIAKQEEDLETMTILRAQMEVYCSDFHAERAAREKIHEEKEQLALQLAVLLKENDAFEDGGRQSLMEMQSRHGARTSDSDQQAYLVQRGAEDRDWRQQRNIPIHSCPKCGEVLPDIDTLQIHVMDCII
UniProt Q9HC29: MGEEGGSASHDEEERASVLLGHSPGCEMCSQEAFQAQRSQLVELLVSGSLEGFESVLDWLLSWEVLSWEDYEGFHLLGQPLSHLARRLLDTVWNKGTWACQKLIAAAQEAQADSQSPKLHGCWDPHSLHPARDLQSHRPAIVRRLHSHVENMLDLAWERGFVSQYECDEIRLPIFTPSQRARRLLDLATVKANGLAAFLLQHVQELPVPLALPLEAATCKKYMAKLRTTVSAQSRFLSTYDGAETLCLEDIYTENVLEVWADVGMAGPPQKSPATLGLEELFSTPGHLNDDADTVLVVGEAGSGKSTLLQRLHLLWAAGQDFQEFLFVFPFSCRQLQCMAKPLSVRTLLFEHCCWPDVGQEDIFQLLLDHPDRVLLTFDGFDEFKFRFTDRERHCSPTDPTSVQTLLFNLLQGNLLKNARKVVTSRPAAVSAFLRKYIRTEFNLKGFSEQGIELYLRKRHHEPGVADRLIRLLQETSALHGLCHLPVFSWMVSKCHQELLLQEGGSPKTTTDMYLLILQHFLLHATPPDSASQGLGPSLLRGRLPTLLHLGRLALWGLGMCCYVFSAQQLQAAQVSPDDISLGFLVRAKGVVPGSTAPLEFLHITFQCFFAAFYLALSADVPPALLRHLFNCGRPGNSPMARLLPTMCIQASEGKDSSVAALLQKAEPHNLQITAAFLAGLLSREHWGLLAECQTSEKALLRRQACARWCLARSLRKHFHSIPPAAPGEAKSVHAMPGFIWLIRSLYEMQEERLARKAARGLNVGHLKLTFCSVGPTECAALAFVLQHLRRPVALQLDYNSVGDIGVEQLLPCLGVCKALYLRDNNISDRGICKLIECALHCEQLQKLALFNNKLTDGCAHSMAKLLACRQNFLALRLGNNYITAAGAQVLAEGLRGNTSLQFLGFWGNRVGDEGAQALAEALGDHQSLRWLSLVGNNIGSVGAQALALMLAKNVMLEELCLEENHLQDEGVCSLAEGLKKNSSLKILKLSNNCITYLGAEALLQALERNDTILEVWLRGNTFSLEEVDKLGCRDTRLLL
UniProt Q676U5: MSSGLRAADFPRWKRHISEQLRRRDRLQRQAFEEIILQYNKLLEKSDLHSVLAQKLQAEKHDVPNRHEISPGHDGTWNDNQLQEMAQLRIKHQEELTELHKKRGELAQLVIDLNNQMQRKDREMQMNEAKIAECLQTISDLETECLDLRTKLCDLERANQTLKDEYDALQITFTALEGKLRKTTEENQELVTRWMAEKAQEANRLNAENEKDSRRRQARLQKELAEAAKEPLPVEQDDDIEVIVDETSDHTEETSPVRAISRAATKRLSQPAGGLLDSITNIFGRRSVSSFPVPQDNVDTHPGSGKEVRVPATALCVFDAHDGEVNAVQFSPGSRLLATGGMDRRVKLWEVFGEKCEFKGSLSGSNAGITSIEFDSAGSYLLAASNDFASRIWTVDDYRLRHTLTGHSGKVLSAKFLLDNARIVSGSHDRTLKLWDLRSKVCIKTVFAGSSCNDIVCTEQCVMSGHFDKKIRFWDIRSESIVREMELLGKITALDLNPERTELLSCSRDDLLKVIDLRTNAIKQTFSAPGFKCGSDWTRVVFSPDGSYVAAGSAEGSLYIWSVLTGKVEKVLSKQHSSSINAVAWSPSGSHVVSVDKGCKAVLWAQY

The target of assay [2] is T2, IRGM, endogenous in THP-1 cells (human (endogenous in THP-1)) (UniProt A1A4Y4).
T2 sequence: T1 sequence
In words: co-IP; endogenous proteins, THP-1 cell lysates, untreated or treated with iE-DAP (40 μg/ml, 6 h) or MDP (40 μg/ml, 6 h); IP with IRGM antibody or isotype control IgG.

For assay [3], the target named is T3, IRGM, overexpressed in HEK293T cells (tag not stated for the experiment) (UniProt A1A4Y4).
T3 sequence: T1 sequence
Briefly: co-IP; HEK293T cells transiently transfected with tagged proteins; NP-40 lysis buffer, antibody 2 h at 4°C, protein G Dynabeads, washed with ice-cold PBS; Western blot; for p62 with NOD1, NOD2 or RIPK2 also with and without co-expressed IRGM.

Another assay deals with GST-RIPK2 (UniProt O43353). In words: pull-down; GST fusion purified on Glutathione Sepharose beads incubated with [35S]-labelled in vitro translated Myc-tagged protein in NETN-E buffer (50 mM Tris pH 8.0, 100 mM NaCl, 6 mM EDTA, 0.5% NP-40, 1 mM DTT), 2 h at 4°C; autoradiography; only the target purified.

No constants are given. Whether binding was seen depends on the method and setting. In cells and extracts the contact can be indirect. Some entries that bind do so weakly or less than the wild type. For part of these data: Tags and fused reporters may be left off the sequences shown.

“Flag-OPTINEURIN (from UniProt Q96CV9 1-577)”: in the assay with GFP-RIPK2, the binding entry is “no binding”. Consider “NOD2, endogenous in HT-29 cells (from UniProt Q9HC29 1-1040)”, for which the binding result in assay [1] is “binds”. Consider “NOD2, endogenous in THP-1 cells (from UniProt Q9HC29 1-1040)”, for which the binding entry in assay [2] is listed as “binds”. On to “NOD2, overexpressed in HEK293T cells (Appendix Fig S3B) (from UniProt Q9HC29 1-1040)”, for which the binding result in assay [3] was “binds”. On to “myc-ATG16L1, in vitro translated (from UniProt Q676U5 1-607)”, for which the binding entry with GST-RIPK2 is reported as “binds”.

“myc-BECLIN1, in vitro translated (from UniProt Q14457 1-450)”: in the assay with GST-RIPK2, the binding entry is “binds”.

B1: GFP-tagged NACHT domain of NOD1 (domain or fragment, UniProt Q9Y239 196-531)
chain: ETIFILGDAGVGKSMLLQRLQSLWATGRLDAGVKFFFHFRCRMFSCFKESDRLCLQDLLFKHYCYPERDPEEVFAFLLRFPHVALFTFDGLDELHSDLDLSRVPDSSCPWEPAHPLVLLANLLSGKLLKGASKLLTARTGIEVPRQFLRKKVLLRGFSPSHLRAYARRMFPERALQDRLLSQLEANPNLCSLCSVPLFCWIIFRCFQHFRAAFEGSPQLPDCTMTLTDVFLLVTEVHLNRMQPSSLVQRNTRSPVETLHAGRDTLCSLGQVAHRGMEKSLFVFTQEEVQASGLQERDMQLGFLRALPELGPGGDQQSYEFFHLTLQAFFTAFFLVL
With B1, in assay [3], the binding entry was “binds”.

B2: Flag-NDP52 (protein, UniProt Q13137 1-446)
chain: MEETIKDPPTSAVLLDHCHFSQVIFNSVEKFYIPGGDVTCHYTFTQHFIPRRKDWIGIFRVGWKTTREYYTFMWVTLPIDLNNKSAKQQEVQFKAYYLPKDDEYYQFCYVDEDGVVRGASIPFQFRPENEEDILVVTTQGEVEEIEQHNKELCKENQELKDSCISLQKQNSDMQAELQKKQEELETLQSINKKLELKVKEQKDYWETELLQLKEQNQKMSSENEKMGIRVDQLQAQLSTQEKEMEKLVQGDQDKTEQLEQLKKENDHLFLSLTEQRKDQKKLEQTVEQMKQNETTAMKKQQELMDENFDLSKRLSENEIICNALQRQKERLEGENDLLKRENSRLLSYMGLDFNSLPYQVPTSDEGGARQNPGLAYGNPYSGIQESSSPSPLSIKKCPICKADDICDHTLEQQQMQPLCFNCPICDKIFPATEKQIFEDHVFCHSL
For the molecule B2, the binding result with GFP-RIPK2 is listed as “no binding”.

B3: GFP-NOD1^CARD (domain or fragment, UniProt Q9Y239 15-105)
chain: ESHPHIQLLKSNRELLVTHIRNTQCLVDNLLKNDYFSAEDAEIVCACPTQPDKVRKILDLVQSKGEEVSEFFLYLLQQLADAYVDLRPWLL
In the case of B3, in assay [3], the binding entry is given as “binds”.

B4: NOD1, endogenous in THP-1 cells (protein, UniProt Q9Y239 1-953)
chain: MEEQGHSEMEIIPSESHPHIQLLKSNRELLVTHIRNTQCLVDNLLKNDYFSAEDAEIVCACPTQPDKVRKILDLVQSKGEEVSEFFLYLLQQLADAYVDLRPWLLEIGFSPSLLTQSKVVVNTDPVSRYTQQLRHHLGRDSKFVLCYAQKEELLLEEIYMDTIMELVGFSNESLGSLNSLACLLDHTTGILNEQGETIFILGDAGVGKSMLLQRLQSLWATGRLDAGVKFFFHFRCRMFSCFKESDRLCLQDLLFKHYCYPERDPEEVFAFLLRFPHVALFTFDGLDELHSDLDLSRVPDSSCPWEPAHPLVLLANLLSGKLLKGASKLLTARTGIEVPRQFLRKKVLLRGFSPSHLRAYARRMFPERALQDRLLSQLEANPNLCSLCSVPLFCWIIFRCFQHFRAAFEGSPQLPDCTMTLTDVFLLVTEVHLNRMQPSSLVQRNTRSPVETLHAGRDTLCSLGQVAHRGMEKSLFVFTQEEVQASGLQERDMQLGFLRALPELGPGGDQQSYEFFHLTLQAFFTAFFLVLDDRVGTQELLRFFQEWMPPAGAATTSCYPPFLPFQCLQGSGPAREDLFKNKDHFQFTNLFLCGLLSKAKQKLLRHLVPAAALRRKRKALWAHLFSSLRGYLKSLPRVQVESFNQVQAMPTFIWMLRCIYETQSQKVGQLAARGICANYLKLTYCNACSADCSALSFVLHHFPKRLALDLDNNNLNDYGVRELQPCFSRLTVLRLSVNQITDGGVKVLSEELTKYKIVTYLGLYNNQITDVGARYVTKILDECKGLTHLKLGKNKITSEGGKYLALAVKNSKSISEVGMWGNQVGDEGAKAFAEALRNHPSLTTLSLASNGISTEGGKSLARALQQNTSLEILWLTQNELNDEVAESLAEMLKVNQTLKHLWLIQNQITAKGTAQLADALQSNTGITEICLNGNLIKPEEAKVYEDEKRIICF
In the case of B4, the binding result in assay [2] was “binds”.

B5: GFP-NOD1 (protein, UniProt Q9Y239 1-953)
chain: B4 chain
Turning to B5, in assay [3], the binding result is “binds”.

B6: NOD1, endogenous in HT-29 cells (protein, UniProt Q9Y239 1-953)
chain: B4 chain
As for B6, in assay [1], the binding entry is recorded as “binds”.

Values taken from paper PMC9713718.
